PubChem BioAssay AID504764, Drosophila RNAi Screening Center – 2011
Screen: 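Knock-downs that raise or lower a Notch target reporter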 (primary screen). System: Drosophila Kc167 cells. Reagents: long dsRNA against Drosophila genes. Timing: about 5 days (4 days dsRNA, then 24 h after transfection). Challenge: transfection of constitutively active membrane-tethered Notch lacking the extracellular domain, read 24 h later. Detection: 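Firefly luciferase from an E(spl)m3 reporter with active Notch, plus control-promoter and uninduced reporter wells for normalisation; unnormalised counts, duplicate wells a and b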. Reading the numbers: induced reporter light, run 1, well a and induced reporter light, run 1, well b: higher = more light from the Notch target reporter with active Notch; control promoter light, run 1, well a and control promoter light, run 1, well b: higher = more light from the viral control promoter (cell number, transfection, viability); uninduced reporter light, run 1, well a: higher = more light from the Notch target reporter without active Notch. Call rule: 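Wells with low control signal or poorly matching duplicates excluded; duplicates averaged; per source plate, z beyond ±2 for induced/control log2 ratio or beyond ±1.8 for induced/uninduced marks a hit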. Calls: active = modifier hit (raised or lowered Notch signal); inactive = not a hit.
The screen tested about 22,000 reagents; this is a random part of those with a known target gene and a result. In the full data, 403 (1.9%) got an active call. 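Unnormalised raw counts per well; ratio z-scores behind the hit calls and whether each hit raises or lowers signal are not deposited.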 Names joined by + are all predicted targets of the reagent. Reagent sequences are not shown. Not stated in the record: the amount of reagent.

Slc25A46a [DRSC20125]
- induced reporter light, run 1, well a: 1.80e5
- induced reporter light, run 1, well b: 1.52e5
- control promoter light, run 1, well a: 2.05e5
- control promoter light, run 1, well b: 1.94e5
- uninduced reporter light, run 1, well a: 10985
- call: inactive

Drep1 [DRSC07527]
- induced reporter light, run 1, well a: 1.05e5
- induced reporter light, run 1, well b: 97505
- control promoter light, run 1, well a: 1.71e5
- control promoter light, run 1, well b: 1.41e5
- uninduced reporter light, run 1, well a: 8865
- call: inactive

Taf12 [DRSC16879]
- induced reporter light, run 1, well a: 1.00e5
- induced reporter light, run 1, well b: 1.29e5
- control promoter light, run 1, well a: 57605
- control promoter light, run 1, well b: 47630
- uninduced reporter light, run 1, well a: 6245
- call: inactive

Cp18 [DRSC11120]
- induced reporter light, run 1, well a: 1.65e5
- induced reporter light, run 1, well b: 1.56e5
- control promoter light, run 1, well a: 1.70e5
- control promoter light, run 1, well b: 1.61e5
- uninduced reporter light, run 1, well a: 7192
- call: inactive

lncRNA:CR42862 + CG33229 [DRSC08497]
- induced reporter light, run 1, well a: 95890
- induced reporter light, run 1, well b: 87750
- control promoter light, run 1, well a: 1.63e5
- control promoter light, run 1, well b: 1.87e5
- uninduced reporter light, run 1, well a: 5795
- call: inactive

Rab21 [DRSC20968]
- induced reporter light, run 1, well a: 1.37e5
- induced reporter light, run 1, well b: 1.44e5
- control promoter light, run 1, well a: 1.48e5
- control promoter light, run 1, well b: 1.93e5
- uninduced reporter light, run 1, well a: 11975
- call: inactive

CG18539 [DRSC06766]
- induced reporter light, run 1, well a: 40780
- induced reporter light, run 1, well b: 38420
- control promoter light, run 1, well a: 46485
- control promoter light, run 1, well b: 49910
- uninduced reporter light, run 1, well a: 4555
- call: inactive

tral [DRSC09779]
- induced reporter light, run 1, well a: 49860
- induced reporter light, run 1, well b: 58480
- control promoter light, run 1, well a: 24370
- control promoter light, run 1, well b: 13450
- uninduced reporter light, run 1, well a: 6870
- call: inactive

Nmda1 [DRSC07479]
- induced reporter light, run 1, well a: 1.61e5
- induced reporter light, run 1, well b: 1.46e5
- control promoter light, run 1, well a: 1.33e5
- control promoter light, run 1, well b: 1.26e5
- uninduced reporter light, run 1, well a: 12475
- call: inactive

faf [DRSC16942]
- induced reporter light, run 1, well a: 1.38e5
- induced reporter light, run 1, well b: 1.49e5
- control promoter light, run 1, well a: 2.57e5
- control promoter light, run 1, well b: 2.35e5
- uninduced reporter light, run 1, well a: 10332
- call: inactive

CG8620 [DRSC11020]
- induced reporter light, run 1, well a: 1.66e5
- induced reporter light, run 1, well b: 1.34e5
- control promoter light, run 1, well a: 1.69e5
- control promoter light, run 1, well b: 1.20e5
- uninduced reporter light, run 1, well a: 7282
- call: inactive

Acat1 [DRSC17766]
- induced reporter light, run 1, well a: 2.37e5
- induced reporter light, run 1, well b: 1.92e5
- control promoter light, run 1, well a: 3.08e5
- control promoter light, run 1, well b: 2.96e5
- uninduced reporter light, run 1, well a: 14105
- call: inactive

PH4alphaNE2 [DRSC16544]
- induced reporter light, run 1, well a: 1.43e5
- induced reporter light, run 1, well b: 1.46e5
- control promoter light, run 1, well a: 1.99e5
- control promoter light, run 1, well b: 1.74e5
- uninduced reporter light, run 1, well a: 11575
- call: inactive

CG11018 [DRSC06024]
- induced reporter light, run 1, well a: 1.15e5
- induced reporter light, run 1, well b: 1.27e5
- control promoter light, run 1, well a: 2.42e5
- control promoter light, run 1, well b: 2.49e5
- uninduced reporter light, run 1, well a: 9970
- call: inactive

CG15172 [DRSC02473]
- induced reporter light, run 1, well a: 54600
- induced reporter light, run 1, well b: 43260
- control promoter light, run 1, well a: 45915
- control promoter light, run 1, well b: 41945
- uninduced reporter light, run 1, well a: 2810
- call: inactive

Osbp [DRSC16779]
- induced reporter light, run 1, well a: 1.44e5
- induced reporter light, run 1, well b: 1.51e5
- control promoter light, run 1, well a: 1.60e5
- control promoter light, run 1, well b: 1.67e5
- uninduced reporter light, run 1, well a: 16240
- call: inactive

An excerpt taken from the entries so far:
tral [DRSC09779]
- induced reporter light, run 1, well a: 49860
- induced reporter light, run 1, well b: 58480
- control promoter light, run 1, well a: 24370
- control promoter light, run 1, well b: 13450
- uninduced reporter light, run 1, well a: 6870
- call: inactive

Nmda1 [DRSC07479]
- induced reporter light, run 1, well a: 1.61e5
- induced reporter light, run 1, well b: 1.46e5
- control promoter light, run 1, well a: 1.33e5
- control promoter light, run 1, well b: 1.26e5
- uninduced reporter light, run 1, well a: 12475
- call: inactive

faf [DRSC16942]
- induced reporter light, run 1, well a: 1.38e5
- induced reporter light, run 1, well b: 1.49e5
- control promoter light, run 1, well a: 2.57e5
- control promoter light, run 1, well b: 2.35e5
- uninduced reporter light, run 1, well a: 10332
- call: inactive

CG8620 [DRSC11020]
- induced reporter light, run 1, well a: 1.66e5
- induced reporter light, run 1, well b: 1.34e5
- control promoter light, run 1, well a: 1.69e5
- control promoter light, run 1, well b: 1.20e5
- uninduced reporter light, run 1, well a: 7282
- call: inactive

The list goes on:
Rpp14b [DRSC15063]
- induced reporter light, run 1, well a: 1.55e5
- induced reporter light, run 1, well b: 1.23e5
- control promoter light, run 1, well a: 2.04e5
- control promoter light, run 1, well b: 2.22e5
- uninduced reporter light, run 1, well a: 13720
- call: inactive

CG7296 [DRSC03042]
- induced reporter light, run 1, well a: 79235
- induced reporter light, run 1, well b: 76360
- control promoter light, run 1, well a: 93525
- control promoter light, run 1, well b: 78385
- uninduced reporter light, run 1, well a: 7278
- call: inactive

Ho [DRSC14939]
- induced reporter light, run 1, well a: 1.30e5
- induced reporter light, run 1, well b: 1.31e5
- control promoter light, run 1, well a: 1.01e5
- control promoter light, run 1, well b: 81260
- uninduced reporter light, run 1, well a: 9380
- call: inactive

CG34296 [DRSC13961]
- induced reporter light, run 1, well a: 1.64e5
- induced reporter light, run 1, well b: 1.79e5
- control promoter light, run 1, well a: 1.56e5
- control promoter light, run 1, well b: 1.67e5
- uninduced reporter light, run 1, well a: 12375
- call: inactive

roh [DRSC04003]
- induced reporter light, run 1, well a: 37195
- induced reporter light, run 1, well b: 41665
- control promoter light, run 1, well a: 64275
- control promoter light, run 1, well b: 63665
- uninduced reporter light, run 1, well a: 2028
- call: inactive

bab1 [DRSC08379]
- induced reporter light, run 1, well a: 1.62e5
- induced reporter light, run 1, well b: 1.64e5
- control promoter light, run 1, well a: 1.97e5
- control promoter light, run 1, well b: 2.08e5
- uninduced reporter light, run 1, well a: 7885
- call: inactive

bab1 [DRSC08709]
- induced reporter light, run 1, well a: 1.57e5
- induced reporter light, run 1, well b: 1.51e5
- control promoter light, run 1, well a: 2.14e5
- control promoter light, run 1, well b: 2.34e5
- uninduced reporter light, run 1, well a: 8810
- call: inactive

bab1 [DRSC21882]
- call: inactive
